# According to PubChem BioAssay AID1347075 (National Center for Advancing Translational Sciences (NCATS), 2019):
# Among all 400,000 compounds or so, about 5,500 (1.4%) were called active. The inconclusive results got no clear call from the source; some entries with a clear call stand among them for comparison. Calls come from the whole dose curve; as a rule, active = well fitted cell-killing curve with a large enough effect; inconclusive = small, poorly fitted or top-dose-only effect, or effect the other way; inactive = flat fitted curve, though single readings scatter. Potencies beside an inconclusive call are fits to weak or partial responses and may not hold up.
# Assay: qHTS assay for MDR1-selective chemotherapeutics: Primary screen using the parental adenocarcinoma cell KB-3-1; note: nearly all actives have a fitted effect of over 60% in size
# Conditions: KB-3-1 viability, CellTiter-Glo ATP luminescence, 72 h; activity change, negative = cytotoxic: at 46.1 µM (top of the series)
# Method in brief: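 KB-3-1 parental drug-naive adenocarcinoma cells in DMEM/10% FBS, incubated 72 h at 37 C with pin-transferred compounds across a concentration series. Viability by CellTiter-Glo luminescence; concentration-response curves fitted after normalization.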
# % is set by controls: 0 for no effect and ±100 for the full control effect; potency is the fitted concentration of half-maximal effect.
SMILES,Potency,"activity change, negative = cytotoxic"
CCc1cccc(CC)c1NC(=O)COC(=O)c1ccccc1-c1nc2ccccc2s1,"inconclusive: 23.1 µM [cytotoxic, single point]",
O=C(Cn1c(-c2cccs2)cc2ccccc21)NCCCN1CCN(c2ccccc2F)CC1,,inactive: -18%
CN(CC(=O)Nc1cccc(F)c1)C(=O)c1ccc2c(c1)CC(c1ccccc1)OC2=O (stereo not drawn),active: 18.4 µM,
CCN(CC)C(=O)c1cc2c(=O)c3cc(F)ccc3oc2nc1C,"inconclusive: 29.1 µM [rising, single point]",
CC(=O)c1ccc(Oc2cc(-c3ccccc3)nc(-c3ccccc3)n2)cc1,"inconclusive: 18.4 µM [cytotoxic, single point]",
CCSc1ccc([C@@H]2[C@H]3C(=O)N(CC)C(=O)[C@H]3[C@]3(C(=O)OC)CCCCN23)cc1OC,"inconclusive: 29.1 µM [cytotoxic, single point]",
CC(C)CC(=O)N1C/C=C\C[C@@H](c2ccc(Cl)cc2)N(Cc2ccc(Cl)cc2)C(=O)[C@@H]1Cc1ccccc1,"inconclusive: 29.1 µM [cytotoxic, single point]",
CC(C)C[C@H](NC(=O)c1nc[nH]c1C(=O)NC1CCN(C(=O)OC(C)(C)C)CC1)C(=O)OC(C)(C)C,"inconclusive: 23.1 µM [cytotoxic, single point]",
CC(C)CNC(=S)NC(=O)c1ccc(F)cc1,,inactive: 18.8%
CC(C)CC(N)c1csc(Nc2cnccn2)n1 (stereo not drawn),,inactive: -5.33%
CC1(C)CC(=O)C=C(c2ccc(-c3cnn(Cc4ccccc4)c3)cc2)C1=O,,inactive: -0.301%
Cc1cc(C)n(Cc2n[nH]c(=S)n2Cc2ccccc2)n1,,inactive: 10.3%
CCCCCC(=O)N1C[C@H](n2cc(COC(=O)c3ccccc3)nn2)[C@@H](O)C[C@@H]1c1ccc(C)cc1,"inconclusive: 29.1 µM [cytotoxic, single point]",
Cc1nn(-c2ccccc2)c(C)c1/C=N/NC(=O)c1cccs1,"inconclusive: 29.1 µM [cytotoxic, single point]",
CCCN1CCN(CCCNC(=O)Cn2nc(-c3ccc(Cl)cc3)ccc2=O)CC1,"inconclusive: 32.6 µM [rising, partial curve, poor fit]",
CC(C)c1ccc(NC(=O)N(CCc2nc3ccccc3[nH]2)C2CCCC2)cc1,"inconclusive: 29.1 µM [cytotoxic, single point]",
Cn1c(-c2ccc(C=O)s2)nc2c3ccccc3c3ccccc3c21,"inconclusive: 29.1 µM [cytotoxic, single point]",
CCCCNC(=O)c1ccc2c(c1)S(=O)(=O)c1ccccc1C2=O,"inconclusive: 16.4 µM [rising, partial curve]",

# Two compounds picked at random from the list so far, as already listed:
SMILES,Potency,"activity change, negative = cytotoxic"
CC1(C)CC(=O)C=C(c2ccc(-c3cnn(Cc4ccccc4)c3)cc2)C1=O,,inactive: -0.301%
CCCCNC(=O)c1ccc2c(c1)S(=O)(=O)c1ccccc1C2=O,"inconclusive: 16.4 µM [rising, partial curve]",
